# Results: PubChem BioAssay AID504834 (National Center for Advancing Translational Sciences (NCATS), 2011)
# Where “and” joins values, the source holds several entries; their conditions need not be identical. Equal values may be shown once. Screen size: about 320,000 compounds; about 22,000 (6.9%) were called active. The shares of active, inactive and inconclusive entries below differ from those in the screen. Calls follow the shape of the dose curve; as a rule, active = well fitted inhibition curve with a large enough effect; inconclusive = small, poorly fitted or top-dose-only effect, or another doubt; inactive = no such curve, though single readings can be large or run the other way. Potencies beside an inconclusive call are fits to weak or partial responses and may not hold up.
# Assay: Primary qHTS for delayed death inhibitors of the malarial parasite plastid, 96 hour incubation
# Conditions: P. falciparum luciferase reporter growth; series mostly up to 28.7 µM
# Procedure, shortened: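 Plates of compound plus infected erythrocytes (2% hematocrit, 0.05% parasitemia final) incubate 96 hours, 37 C, 5% CO2. Detection reagent added; reduced luminescence from the parasites' luciferase reporter flags inhibition.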
# % is scaled to controls: 0 for no effect and ±100 for the full control effect; potency is read from the fitted curve at half-maximal effect.
Compound,Potency,"activity change, negative = inhibition"
O=C(Nc1ccc(F)cc1)C(c1ccccc1)N1CCN(C(=O)c2ccco2)CC1 (stereo not drawn),"inconclusive: 18.5 µM [inhibitor, single point]",
O=C(CCCOc1ccccc1)Nc1ccc(S(=O)(=O)N2CCOCC2)cc1,"inconclusive: 18.5 µM [inhibitor, single point]",
Cc1ccc(/C=N/Nc2cc(C)nc(NCc3ccccc3)n2)cc1,active: 1.04 µM,
Cc1ccc(NC(=O)CC2=NC(=O)C(CC(=O)Nc3ccccc3C)S2)cc1 (stereo not drawn),,inactive: -20.2% [at 5.75 µM]
CCCN=Cc1ccc(O)cc1,inactive,
O=C(Cn1c(NCCCO)nc2ccccc21)c1ccco1,"inconclusive: 11.7 µM [inhibitor, single point]",
Cc1cc(C(=O)NCc2ccc(F)cc2)c2ccccc2n1,inactive,
OC(CNCc1ccccc1F)(c1ccc(F)cc1)c1ccc(F)cc1,"inconclusive: 1.65 µM [inhibitor, full curve, poor fit]",
COc1ccccc1-c1cc(C(=O)N/N=C/c2cccs2)c2ccccc2n1,active: 4.15 µM,
CCCOc1ccc(/C(O)=C2\C(=O)C(=O)N(CCCOC)C23C(=O)N(C)c2ccccc23)cc1 (stereo not drawn),"inconclusive: 18.5 µM [inhibitor, single point]",
CN(CC(=O)Nc1cccc(F)c1)C(=O)CC1CC2CCC1C2 (stereo not drawn),"inconclusive: 18.5 µM [inhibitor, single point]",
CCOC(=O)C1(Cc2ccc(OC)cc2)CCN(C(=O)CCN2CCCC2=O)CC1,inactive,
CCOC(=O)c1cnn(-c2ccccc2)c1-c1ccncc1,"inconclusive: 1.65 µM [inhibitor, full curve, poor fit]",
O=C(CSc1nc2ccccc2c(=O)n1-c1ccc(F)cc1)Nc1ccc2c(c1)CCC2,active: 9.28 µM,
Cc1cccc(-c2nc3ccccc3c(=O)n2NC(=O)/C=C/c2ccc([N+](=O)[O-])cc2)c1,"inconclusive: 4.15 µM [inhibitor, full curve]",
O=[N+]([O-])c1nn(-c2ccc3c(c2)OCCO3)n(O)c1=NC1CCCCC1,"inconclusive: 0.522 µM [inhibitor, full curve, poor fit]",
CC(C)N1CCN(Cc2ccccc2-c2ccco2)CC1CCO (stereo not drawn),"inconclusive: 18.5 µM [inhibitor, single point]",
Cc1ccc(CNC(=O)CCC2CCCN(Cc3cccc4cccnc34)C2)o1 (stereo not drawn),"inconclusive: 10.4 µM [inhibitor, single point]",
N=c1oc2ccc3ccccc3c2cc1-c1nc(-c2ccccc2)cs1,inactive,
O=C(NC1CCN(Cc2cccc([N+](=O)[O-])c2)CC1)c1ccccc1,"inconclusive: 18.5 µM [inhibitor, single point]",
O=S(=O)(c1ccc(N2CCN(CCO)CC2)nc1)N1CCOCC1,inactive,
COc1ccccc1Nc1nc(C)cs1,"inactive and inconclusive: 18.5 µM [inhibitor, single point]",
Cc1ccc(S(=O)(=O)NCc2cccnc2)cc1,"inconclusive: 0.294 µM [inhibitor, full curve, poor fit]",
O=C1N(CCCl)c2ccc(Br)cc2C12OCCO2,"inconclusive: 0.928 µM [inhibitor, partial curve, poor fit]",
CCOC(=O)c1c(C)[nH]c(C(=O)N2CCc3cc(OC)c(OC)cc3C2)c1C,"inconclusive: 18.5 µM [inhibitor, single point]",

Compound,Potency,"activity change, negative = inhibition"
CCc1cccc2c3c([nH]c12)C(CC)(CC(=O)O)OCC3 (stereo not drawn),"inconclusive: 11.7 µM [inhibitor, partial curve, poor fit]",
O=C(CCC(=O)N(CC(=O)NC1CCCC1)c1ccc(F)cc1)Nc1nccs1,inactive,
CSc1nsc(SCC(=O)Nc2nncs2)n1,inactive,
CSc1ccccc1C(=O)NC1CCCc2ccccc21 (stereo not drawn),"inconclusive: 8.28 µM [inhibitor, partial curve]",
CC1CCC/C(=N/Nc2ccc([N+](=O)[O-])cc2[N+](=O)[O-])C1 (stereo not drawn),"inconclusive: 18.5 µM [inhibitor, single point]",
COc1cc(/C=N/NC(=O)c2cc3ccccc3[nH]2)ccc1O,"inconclusive: 18.5 µM [inhibitor, partial curve, poor fit]",
c1ccc(C2=NNC(c3ccccn3)=NN2)nc1,"inconclusive: 1.47 µM [inhibitor, full curve, poor fit]",
CCOc1ccc(-n2cccc2C=O)cc1,"inconclusive: 4.15 µM [inhibitor, full curve, poor fit]",
Cc1cccc(NC(=O)[C@H](NC(=O)[C@@H]2Cc3ccccc3CN2)c2ccccc2)c1,"inconclusive: 18.5 µM [inhibitor, single point]",
CCSCCc1nnc(NC(=O)Nc2cccc(C(F)(F)F)c2)s1,"inconclusive: 1.47 µM [inhibitor, full curve]",
Cc1ccc(OCC(=O)Nc2cc(C(=O)O)cc(C(=O)O)c2)cc1C,inactive,
O=C(CSc1nccn1Cc1ccccc1)NC1CCCC1,inactive,
O=C(NC1CCCC1)C(c1ccccc1)N(C(=O)c1ccco1)C1CCCC1 (stereo not drawn),inactive,
CCOC(=O)N1CCC(NC(=O)CSCc2nc(-c3ccc(OCC)cc3)oc2C)CC1,inactive,
COc1cccc(CN2CC(C(=O)N3CCCC3)CCC2=O)c1 (stereo not drawn),"inconclusive: 8.28 µM [inhibitor, partial curve]",
Cc1ccc(S(=O)(=O)[N-]c2nc3ccccc3nc2-n2cc[n+](CCC(C)C)c2)cc1,"inconclusive: 13.1 µM [inhibitor, single point]",
O=C(CCS(=O)(=O)c1cccc2nonc12)NCc1ccc(Cl)cc1,inactive,
COc1ccccc1OCCNC(=O)c1ccccc1OCc1c(C)noc1C,"inconclusive: 3.7 µM [inhibitor, partial curve, poor fit]",
Fc1cccc(CSc2nnc3c(n2)[nH]c2ccccc23)c1,"inconclusive: 0.0522 µM [inhibitor, full curve, poor fit]",
COc1ccc(OCC(O)CON2C(=O)c3ccccc3C2=O)cc1 (stereo not drawn),"inconclusive: 11.7 µM [inhibitor, single point]",
O=C(NCc1cccnc1)NC1CC(=O)N(c2ccc3c(c2)OCCO3)C1 (stereo not drawn),"inconclusive: 9.28 µM [inhibitor, single point]",
Cc1cccc(Cn2c(=O)n(CCCC(=O)NCc3ccco3)c(=O)c3ccccc32)c1,inactive,
CCC(=O)c1ccc(OCC(=O)N(CC)CC(=O)Nc2ccccc2OC)cc1,"inconclusive: 11.7 µM [inhibitor, single point]",
O=C(c1ccccc1)c1nnc(-c2ccccc2F)o1,inactive,
CC(C)CCn1c(N)c(S(=O)(=O)c2cccs2)c2nc3ccccc3nc21,"inconclusive: 13.1 µM [inhibitor, single point]",

Compound,Potency,"activity change, negative = inhibition"
N=C1C(c2ccccc2)=C(O)CN1c1cccc(S(=O)(=O)Nc2cccc(C(F)(F)F)c2)c1,inactive,
CCOc1c(/C=C(\C#N)C(N)=O)c2ccccc2n1CC,active: 13.1 µM,
COC(=O)C1=C(C)Nc2nnnn2C1c1ccc(Cl)cc1Cl (stereo not drawn),"inconclusive: 7.38 µM [inhibitor, partial curve, poor fit]",
COc1cccc(/C=C/C(=O)NCc2ccc(S(N)(=O)=O)cc2)c1,inactive,
COc1cc(NS(=O)(=O)c2ccc(Cl)cc2)c(C(=O)O)cc1OC,"inconclusive: 13.1 µM [inhibitor, partial curve, poor fit]",
Cc1cc(Cl)nc(Cl)c1C(=O)N1CCOCC1,"inconclusive: 10.4 µM [inhibitor, single point]",
C(=N\N1CCN(Cc2ccccc2)CC1)/c1cccnc1,active: 6.57 µM,
CC1CCCCN1CC(=O)c1c(N)n(Cc2ccccc2)c(=O)n(C)c1=O (stereo not drawn),inactive,
Cc1ccc(F)cc1NCC(=O)Nc1ccc(Br)cc1,inactive,
O=C(NCCc1ccccc1F)C1CC(O)CN1C(=O)Nc1ccccc1 (stereo not drawn),"inconclusive: 18.5 µM [inhibitor, single point]",
COCCC1CCCCN1C(=O)c1cccc(OC2CCN(C3CCCC3)CC2)c1 (stereo not drawn),"inconclusive: 18.5 µM [inhibitor, single point]",
COc1ccc(CN2CCOCCOCCOCC2)cc1,inactive,
COc1ccc(C=O)cc1CN1C(=O)c2ccccc2C1=O,active: 0.147 µM,
CCN1CCN(C(=O)c2cc(-c3cccnc3)nc3ccc(Br)cc23)CC1,"inconclusive: 11.7 µM [inhibitor, single point]",
O=C(CN1C(=O)c2ccccc2S1(=O)=O)NCc1c(F)cccc1F,inactive,
O=C1C(Cl)=C(NC(=O)c2ccccc2)C(=O)C(Cl)=C1NC(=O)c1ccccc1,"inconclusive: 11.7 µM [inhibitor, single point]",
CC1CCN(c2nc3ccccc3nc2C(C#N)C(=O)OC2CCCCC2)CC1 (stereo not drawn),"inconclusive: 18.5 µM [inhibitor, single point]",
CC(=O)c1ccc(N2CCN(c3ccc(S(=O)(=O)NCCCN(C)C)cc3[N+](=O)[O-])CC2)cc1,active: 13.1 µM,
CCCCC(=O)O[C@]1(C(=O)CO)CC[C@H]2[C@@H]3CCC4=CC(=O)CC[C@]4(C)[C@H]3[C@@H](O)C[C@@]21C,"inconclusive: 0.0029 µM [inhibitor, full curve, poor fit]",
O=C(Oc1ccccc1C(=O)Oc1ccccc1)c1ccco1,inactive,
Cc1ccc(CNS(=O)(=O)c2ccc(F)c(F)c2)n1C,inactive,
COc1ccc(COCC(O)CN2CCc3ccccc3C2)cc1OC (stereo not drawn),inactive,
O=C(CN1CCN(S(=O)(=O)/C=C/c2ccccc2)CC1)NC(=O)NCc1ccco1,"inconclusive: 10.4 µM [inhibitor, partial curve, poor fit]",

# Reprinted at random: 3 compounds from above.
Compound,Potency,"activity change, negative = inhibition"
O=C(NCCc1ccccc1F)C1CC(O)CN1C(=O)Nc1ccccc1 (stereo not drawn),"inconclusive: 18.5 µM [inhibitor, single point]",
Cc1ccc(F)cc1NCC(=O)Nc1ccc(Br)cc1,inactive,
COCCC1CCCCN1C(=O)c1cccc(OC2CCN(C3CCCC3)CC2)c1 (stereo not drawn),"inconclusive: 18.5 µM [inhibitor, single point]",
